Measured values from publication PMC5336300.
These are yes or no findings as the source states them, for the method shown. Binding can be weak; no strength is given. For some assays here: Binding seen in cells or lysates may run through a third protein.

T1: IFT43 (endogenous) (Chlamydomonas reinhardtii (endogenous in strain 21gr)) (UniProt A8HYP5)
T1 sequence: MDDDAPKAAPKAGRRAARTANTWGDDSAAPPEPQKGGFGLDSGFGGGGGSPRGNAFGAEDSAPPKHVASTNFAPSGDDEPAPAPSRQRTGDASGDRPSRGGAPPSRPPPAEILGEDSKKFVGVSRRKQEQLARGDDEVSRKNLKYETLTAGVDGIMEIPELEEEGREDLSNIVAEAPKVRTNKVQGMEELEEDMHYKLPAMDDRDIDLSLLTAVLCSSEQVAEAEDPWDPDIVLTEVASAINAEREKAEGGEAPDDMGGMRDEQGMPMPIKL


Legend:
[1] = target: T1, IFT43 (endogenous) (Chlamydomonas reinhardtii (endogenous in strain 21gr)); assay: co-IP; anti-IFT43 antibody (15 μl) on lysates of 1x10^9 cells in buffer A-IP (20 mM HEPES pH 7.2, 150 mM NaCl, 5 mM MgCl2); wild type cells, also ift139, ift140 and other IFT-A mutant cells; immunoblots with anti-IFT-A antibodies
IFT121 (Chlamydomonas) = assay: two-hybrid; pGADT7 and pGBKT7 fusions, all pair combinations co-transformed into yeast AH109; growth at 30°C for 2-3 days on SD -Leu -Trp -His -Ade; empty vectors as control

Row | binding [1] | binding (IFT121 (Chlamydomonas)) | Molecule
1 | binds |  | IFT121 (endogenous)
2 |  | binds | IFT43 (protein, UniProt A8HYP5 1-272) MDDDAPKAAPKAGRRAARTANTWGDDSAAPPEPQKGGFGLDSGFGGGGGSPRGNAFGAEDSAPPKHVASTNFAPSGDDEPAPAPSRQRTGDASGDRPSRGGAPPSRPPPAEILGEDSKKFVGVSRRKQEQLARGDDEVSRKNLKYETLTAGVDGIMEIPELEEEGREDLSNIVAEAPKVRTNKVQGMEELEEDMHYKLPAMDDRDIDLSLLTAVLCSSEQVAEAEDPWDPDIVLTEVASAINAEREKAEGGEAPDDMGGMRDEQGMPMPIKL
